From paper PMC9098493
These are yes or no findings as the source states them, for the method shown. In cells and extracts the contact can be indirect. These calls come from enrichment with a bait or labelling near it, and not all partners need be listed.

Sequences of proteins named here, by UniProt entry; tags and fusion partners are left off.
UniProt Q96524: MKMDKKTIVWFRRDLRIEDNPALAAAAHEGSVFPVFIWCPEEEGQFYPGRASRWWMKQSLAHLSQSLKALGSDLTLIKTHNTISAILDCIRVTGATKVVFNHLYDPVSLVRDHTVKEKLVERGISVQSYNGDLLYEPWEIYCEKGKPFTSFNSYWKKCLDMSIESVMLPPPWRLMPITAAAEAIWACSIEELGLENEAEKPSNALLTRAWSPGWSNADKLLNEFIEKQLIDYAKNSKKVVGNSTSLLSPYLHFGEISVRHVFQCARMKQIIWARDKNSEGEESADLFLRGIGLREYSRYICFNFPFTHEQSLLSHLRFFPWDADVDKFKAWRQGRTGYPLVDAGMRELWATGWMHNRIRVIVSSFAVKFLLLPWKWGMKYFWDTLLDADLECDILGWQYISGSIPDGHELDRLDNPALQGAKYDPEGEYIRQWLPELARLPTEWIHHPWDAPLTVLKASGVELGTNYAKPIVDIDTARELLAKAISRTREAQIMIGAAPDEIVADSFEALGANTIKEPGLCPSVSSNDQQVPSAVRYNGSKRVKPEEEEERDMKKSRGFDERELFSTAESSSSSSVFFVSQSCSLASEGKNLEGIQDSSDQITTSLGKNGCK
UniProt Q9C7G4: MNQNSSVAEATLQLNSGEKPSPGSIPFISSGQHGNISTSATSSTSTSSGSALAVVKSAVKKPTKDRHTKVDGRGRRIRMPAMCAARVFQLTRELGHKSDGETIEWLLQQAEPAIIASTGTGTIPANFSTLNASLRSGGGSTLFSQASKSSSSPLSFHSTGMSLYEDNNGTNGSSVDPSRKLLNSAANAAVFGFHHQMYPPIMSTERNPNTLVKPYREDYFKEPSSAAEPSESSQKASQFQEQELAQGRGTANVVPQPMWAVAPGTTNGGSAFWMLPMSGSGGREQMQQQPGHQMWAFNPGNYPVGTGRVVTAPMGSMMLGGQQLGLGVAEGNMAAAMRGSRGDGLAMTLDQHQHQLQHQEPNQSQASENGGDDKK

Target: GFP-CRY2 fusion protein from Arabidopsis seedlings overexpressing GFP-CRY2 (Arabidopsis) (UniProt Q96524)
Test: affinity purification with mass spectrometry; GFP-trap beads on extract of Arabidopsis seedlings overexpressing GFP-CRY2; dark or blue light (30 μmol m^-2 s^-1); NEB buffer with 1% Triton X-100; label-free quantification

binding: binds
Sequence: TEOSINTE BRANCHED1-CYCLOIDEA-PCF 22 (TCP22), endogenous in GFP-CRY2 seedlings (from UniProt Q9C7G4 1-375)
